{"sequences": {"note": "Chains of the proteins cited; added tags and fusions are not shown. Lines headed by an entry give the natural chain unless they say otherwise; changes in a name come on top.", "UniProt Q01329": "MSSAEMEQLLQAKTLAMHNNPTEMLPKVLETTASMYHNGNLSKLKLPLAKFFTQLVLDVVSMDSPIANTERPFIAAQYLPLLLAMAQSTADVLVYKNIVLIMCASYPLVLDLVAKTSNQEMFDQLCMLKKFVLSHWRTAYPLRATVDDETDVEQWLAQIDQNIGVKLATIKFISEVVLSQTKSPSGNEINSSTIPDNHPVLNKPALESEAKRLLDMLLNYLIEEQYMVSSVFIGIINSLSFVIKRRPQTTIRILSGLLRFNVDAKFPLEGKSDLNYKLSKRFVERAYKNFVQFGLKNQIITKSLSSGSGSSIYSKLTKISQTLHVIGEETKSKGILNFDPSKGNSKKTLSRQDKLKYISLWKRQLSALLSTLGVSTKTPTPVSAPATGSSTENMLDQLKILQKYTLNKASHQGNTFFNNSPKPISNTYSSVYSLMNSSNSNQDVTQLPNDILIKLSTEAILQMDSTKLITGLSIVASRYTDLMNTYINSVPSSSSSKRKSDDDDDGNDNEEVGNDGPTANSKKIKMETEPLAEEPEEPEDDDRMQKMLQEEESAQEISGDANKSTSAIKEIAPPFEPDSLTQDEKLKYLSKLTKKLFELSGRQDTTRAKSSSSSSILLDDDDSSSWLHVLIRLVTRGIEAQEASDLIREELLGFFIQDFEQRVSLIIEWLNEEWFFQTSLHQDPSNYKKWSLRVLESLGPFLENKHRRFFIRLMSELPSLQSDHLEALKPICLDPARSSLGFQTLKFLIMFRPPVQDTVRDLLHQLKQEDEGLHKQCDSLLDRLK"}, "source": "paper doi:10.1101/2021.09.02.458805", "about": "(bioRxiv, 2021)", "binders": {"B1": {"name": "Cft1 (protein, UniProt Q06632 1-1357)", "chain": "MNVYDDVLDATVVSHSLATHFTTSDYEELLVVRTNILSVYRPTRDGKLYLTDEFKFHGLITDIGLIPQKDSPLSCLLLCTGVAKISILKFNTLTNSIDTLSLHYYEGKFKGKSLVELAKISTLRMDPGSSCALLFNNDIIAFLPFHVNKNDDDEEEEDEDENIDDSELIHSMNQKSQGTNTFNKRKRTKLGDKFTAPSVVLVASELYEGAKNIIDIQFLKNFTKPTIALLYQPKLVWAGNTTISKLPTQYVILTLNIQPAESATKIESTTIAFVKELPWDLHTIVPVSNGAIIVGTNELAFLDNTGVLQSTVLLNSFADKELQKTKIINNSSLEIMFREKNTTSIWIPSSKSKNGGSNNDETLLLMDLKSNIYYIQMEAEGRLLIKFDIFKLPIVNDLLKENSNPKCITRLNATNSNKNMDLFIGFGSGNALVLRLNNLKSTIETREAHNPSSGTNSLMDINDDDDEEMDDLYADEAPENGLTTNDSKGTVETVQPFDIELLSSLRNVGPITSLTVGKVSSIDDVVKGLPNPNKNEYSLVATSGNGSGSHLTVIQTSVQPEIELALKFISITQIWNLKIKGRDRYLITTDSTKSRSDIYESDNNFKLHKGGRLRRDATTVYISMFGEEKRIIQVTTNHLYLYDTHFRRLTTIKFDYEVIHVSVMDPYILVTVSRGDIKIFELEEKNKRKLLKVDLPEILNEMVITSGLILKSNMCNEFLIGLSKSQEEQLLFTFVTADNQIIFFTKDHNDRIFQLNGVDQLNESLYISTYQLGDEIVPDPSIKQVMINKLGHDNKEEYLTILTFGGEIYQYRKLPQRRSRFYRNVTRNDLAITGAPDNAYAKGVSSIERIMHYFPDYNGYSVIFVTGSVPYILIKEDDSTPKIFKFGNIPLVSVTPWSERSVMCVDDIKNARVYTLTTDNMYYGNKLPLKQIKISNVLDDYKTLQKLVYHERAQLFLVSYCKRVPYEALGEDGEKVIGYDENVPHAEGFQSGILLINPKSWKVIDKIDFPKNSVVNEMRSSMIQINSKTKRKREYIIAGVANATTEDTPPTGAFHIYDVIEVVPEPGKPDTNYKLKEIFQEEVSGTVSTVCEVSGRFMISQSQKVLVRDIQEDNSVIPVAFLDIPVFVTDSKSFGNLLIIGDAMQGFQFIGFDAEPYRMISLGRSMSKFQTMSLEFLVNGGDMYFAATDADRNVHVLKYAPDEPNSLSGQRLVHCSSFTLHSTNSCMMLLPRNEEFGSPQVPSFQNVGGQVDGSVFKIVPLSEEKYRRLYVIQQQIIDRELQLGGLNPRMERLANDFYQMGHSMRPMLDFNVIRRFCGLAIDRRKSIAQKAGRHAHFEAWRDIINIEFSMRSLCQGK"}, "B2": {"name": "Ysh1, untagged (enzyme, UniProt Q06224 1-779)", "chain": "MERTNTTTFKFFSLGGSNEVGRSCHILQYKGKTVMLDAGIHPAYQGLASLPFYDEFDLSKVDILLISHFHLDHAASLPYVMQRTNFQGRVFMTHPTKAIYRWLLRDFVRVTSIGSSSSSMGTKDEGLFSDEDLVDSFDKIETVDYHSTVDVNGIKFTAFHAGHVLGAAMFQIEIAGLRVLFTGDYSREVDRHLNSAEVPPLSSNVLIVESTFGTATHEPRLNRERKLTQLIHSTVMRGGRVLLPVFALGRAQEIMLILDEYWSQHADELGGGQVPIFYASNLAKKCMSVFQTYVNMMNDDIRKKFRDSQTNPFIFKNISYLRNLEDFQDFGPSVMLASPGMLQSGLSRDLLERWCPEDKNLVLITGYSIEGTMAKFIMLEPDTIPSINNPEITIPRRCQVEEISFAAHVDFQENLEFIEKISAPNIILVHGEANPMGRLKSALLSNFASLKGTDNEVHVFNPRNCVEVDLEFQGVKVAKAVGNIVNEIYKEENVEIKEEIAAKIEPIKEENEDNLDSQAEKGLVDEEEHKDIVVSGILVSDDKNFELDFLSLSDLREHHPDLSTTILRERQSVRVNCKKELIYWHILQMFGEAEVLQDDDRVTNQEPKVKEESKDNLTNTGKLILQIMGDIKLTIVNTLAVVEWTQDLMNDTVADSIIAILMNVDSAPASVKLSSHSCDDHDHNNVQSNAQGKIDEVERVKQISRLFKEQFGDCFTLFLNKDEYASNKEETITGVVTIGKSTAKIDFNNMKILECNSNPLKGRVESLLNIGGNLVTPLC"}, "B3": {"name": "Cft2, full length, untagged (protein, UniProt Q12102 1-859)", "chain": "MTYKYNCCDDGSGTTVGSVVRFDNVTLLIDPGWNPSKVSYEQCIKYWEKVIPEIDVIILSQPTIECLGAHSLLYYNFTSHFISRIQVYATLPVINLGRVSTIDSYASAGVIGPYDTNKLDLEDIEISFDHIVPLKYSQLVDLRSRYDGLTLLAYNAGVCPGGSIWCISTYSEKLVYAKRWNHTRDNILNAASILDATGKPLSTLMRPSAIITTLDRFGSSQPFKKRSKIFKDTLKKGLSSDGSVIIPVDMSGKFLDLFTQVHELLFESTKINAHTQVPVLILSYARGRTLTYAKSMLEWLSPSLLKTWENRNNTSPFEIGSRIKIIAPNELSKYPGSKICFVSEVGALINEVIIKVGNSEKTTLILTKPSFECASSLDKILEIVEQDERNWKTFPEDGKSFLCDNYISIDTIKEEPLSKEETEAFKVQLKEKKRDRNKKILLVKRESKKLANGNAIIDDTNGERAMRNQDILVENVNGVPPIDHIMGGDEDDDEEEENDNLLNLLKDNSEKSAAKKNTEVPVDIIIQPSAASKHKMFPFNPAKIKKDDYGTVVDFTMFLPDDSDNVNQNSRKRPLKDGAKTTSPVNEEDNKNEEEDGYNMSDPISKRSKHRASRYSGFSGTGEAENFDNLDYLKIDKTLSKRTISTVNVQLKCSVVILNLQSLVDQRSASIIWPSLKSRKIVLSAPKQIQNEEITAKLIKKNIEVVNMPLNKIVEFSTTIKTLDISIDSNLDNLLKWQRISDSYTVATVVGRLVKESLPQVNNHQKTASRSKLVLKPLHGSSRSHKTGALSIGDVRLAQLKKLLTEKNYIAEFKGEGTLVINEKVAVRKINDAETIIDGTPSELFDTVKKLVTDMLAKI"}, "B4": {"name": "Cft2(S), residues 1-720 (domain or fragment, S. cerevisiae, UniProt Q12102 1-720, looked up)", "chain": "MTYKYNCCDDGSGTTVGSVVRFDNVTLLIDPGWNPSKVSYEQCIKYWEKVIPEIDVIILSQPTIECLGAHSLLYYNFTSHFISRIQVYATLPVINLGRVSTIDSYASAGVIGPYDTNKLDLEDIEISFDHIVPLKYSQLVDLRSRYDGLTLLAYNAGVCPGGSIWCISTYSEKLVYAKRWNHTRDNILNAASILDATGKPLSTLMRPSAIITTLDRFGSSQPFKKRSKIFKDTLKKGLSSDGSVIIPVDMSGKFLDLFTQVHELLFESTKINAHTQVPVLILSYARGRTLTYAKSMLEWLSPSLLKTWENRNNTSPFEIGSRIKIIAPNELSKYPGSKICFVSEVGALINEVIIKVGNSEKTTLILTKPSFECASSLDKILEIVEQDERNWKTFPEDGKSFLCDNYISIDTIKEEPLSKEETEAFKVQLKEKKRDRNKKILLVKRESKKLANGNAIIDDTNGERAMRNQDILVENVNGVPPIDHIMGGDEDDDEEEENDNLLNLLKDNSEKSAAKKNTEVPVDIIIQPSAASKHKMFPFNPAKIKKDDYGTVVDFTMFLPDDSDNVNQNSRKRPLKDGAKTTSPVNEEDNKNEEEDGYNMSDPISKRSKHRASRYSGFSGTGEAENFDNLDYLKIDKTLSKRTISTVNVQLKCSVVILNLQSLVDQRSASIIWPSLKSRKIVLSAPKQIQNEEITAKLIKKNIEVVNMPLNKIVEFSTTI"}}, "key": {"[1]": {"target": "T1, StrepII-tagged Mpe1 (S. cerevisiae) (UniProt P35728)", "T1 sequence": "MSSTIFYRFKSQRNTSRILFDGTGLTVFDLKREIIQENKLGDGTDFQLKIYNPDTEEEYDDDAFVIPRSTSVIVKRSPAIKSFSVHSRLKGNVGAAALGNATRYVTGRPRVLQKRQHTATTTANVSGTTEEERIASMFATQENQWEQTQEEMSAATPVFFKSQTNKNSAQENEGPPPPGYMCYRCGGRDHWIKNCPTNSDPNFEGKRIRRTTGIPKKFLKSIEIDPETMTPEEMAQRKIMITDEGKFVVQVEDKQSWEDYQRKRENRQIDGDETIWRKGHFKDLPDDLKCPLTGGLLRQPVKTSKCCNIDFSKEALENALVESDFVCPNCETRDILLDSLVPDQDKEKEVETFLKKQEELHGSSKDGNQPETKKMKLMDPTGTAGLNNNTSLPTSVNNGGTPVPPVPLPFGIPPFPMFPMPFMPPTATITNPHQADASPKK", "test": "pull-down"}, "[2]": {"target": "polymerase module-Cft2 complex (S. cerevisiae) (UniProt Q06632)", "test": "pull-down"}, "[3]": {"target": "phosphatase module of CPF (Pta1, Pti1, Ssu72, Ref2-SII, Swd2, Glc7) (S. cerevisiae) (UniProt Q01329)", "test": "pull-down"}, "[4]": {"target": "T1, StrepII-tagged Mpe1 (S. cerevisiae)", "test": "cross-linking"}}, "note": "Results are given in words; binding and its absence hold for the method and conditions named. For some assays here: In cells and extracts the contact can be indirect. Some entries that bind do so weakly or less than the wild type. Sequences can lack the tags named with a protein."}
{"binder": "B1", "values": [{"measurement": "binding", "setting": "[1]", "result": "binds"}]}
{"binder": "B2", "values": [{"measurement": "binding", "setting": "[2]", "result": "no binding"}, {"measurement": "binding", "setting": "[3]", "result": "binds"}]}
{"binder": "B3", "values": [{"measurement": "binding", "setting": "[3]", "result": "binds"}]}
{"binder": "B4", "values": [{"measurement": "binding", "setting": "[4]", "result": "no binding"}]}
